Assay [1] addresses T1, PSY1 fused with the N-terminus of LUC (PSY1-nLUC) (tomato (Solanum lycopersicum)) (UniProt P08196).
T1 sequence: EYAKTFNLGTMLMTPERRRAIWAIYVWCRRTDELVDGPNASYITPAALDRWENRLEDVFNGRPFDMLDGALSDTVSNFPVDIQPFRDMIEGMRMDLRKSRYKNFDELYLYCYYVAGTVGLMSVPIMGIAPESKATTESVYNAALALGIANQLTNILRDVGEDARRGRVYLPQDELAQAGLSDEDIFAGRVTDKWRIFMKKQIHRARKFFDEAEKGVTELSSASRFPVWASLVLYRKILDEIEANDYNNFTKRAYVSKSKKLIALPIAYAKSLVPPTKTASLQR
Briefly: split reporter; split luciferase complementation imaging (LCI): cLUC and nLUC fusions co-expressed in N. benthamiana leaves, 48 h, 1 mM luciferin; empty cLUC or nLUC vectors as negative controls.

In assay [2] the target is Plastid Protein Sensing RING E3 ligase 1 (PPSR1), GAL4 two-hybrid fusion (tomato (Solanum lycopersicum)). Briefly: two-hybrid; pairwise, Matchmaker GAL4 Two-Hybrid System 3; AD and BD fusions co-transformed into S. cerevisiae, plated on -LW and -LWHA with X-α-gal; empty vectors as negative controls.

Results are given in words; binding and its absence hold for the method and conditions named. Binding calls can cover weak binding; strength is not graded here. Where a sequence is shown, tags or fusion partners need not be part of it. For some assays here: Binding seen in cells or lysates may run through a third protein.

As to “PPSR1 fused with the C-terminus of LUC (cLUC-PPSR1) (tomato (Solanum lycopersicum)) (enzyme)”, the binding result in assay [1] is recorded as “binds”.

B1: PSY1^239–412, GAL4 activation domain fusion (domain or fragment, UniProt P08196 239-412)
chain: YCYYVAGTVGLMSVPIMGIAPESKATTESVYNAALALGIANQLTNILRDVGEDARRGRVYLPQDELAQAGLSDEDIFAGRVTDKWRIFMKKQIHRARKFFDEAEKGVTELSSASRFPVWASLVLYRKILDEIEANDYNNFTKRAYVSKSKKLIALPIAYAKSLVPPTKTASLQR
Turning to B1, in assay [2], the binding entry is “no binding”.

B2: PSY1^130–412, GAL4 activation domain fusion (domain or fragment, UniProt P08196 130-412)
chain: EYAKTFNLGTMLMTPERRRAIWAIYVWCRRTDELVDGPNASYITPAALDRWENRLEDVFNGRPFDMLDGALSDTVSNFPVDIQPFRDMIEGMRMDLRKSRYKNFDELYLYCYYVAGTVGLMSVPIMGIAPESKATTESVYNAALALGIANQLTNILRDVGEDARRGRVYLPQDELAQAGLSDEDIFAGRVTDKWRIFMKKQIHRARKFFDEAEKGVTELSSASRFPVWASLVLYRKILDEIEANDYNNFTKRAYVSKSKKLIALPIAYAKSLVPPTKTASLQR
On to B2, for which the binding entry in assay [2] is “binds”.

B3: PSY1^130–238, GAL4 activation domain fusion (domain or fragment, UniProt P08196 130-238)
chain: EYAKTFNLGTMLMTPERRRAIWAIYVWCRRTDELVDGPNASYITPAALDRWENRLEDVFNGRPFDMLDGALSDTVSNFPVDIQPFRDMIEGMRMDLRKSRYKNFDELYL
As to B3, in assay [2], the binding result is listed as “binds”.

B4: PSY1 without transit peptide (PSY1^63–412), GAL4 activation domain fusion (domain or fragment, UniProt P08196 63-412)
chain: SAILATPSGERTMTSEQMVYDVVLRQAALVKRQLRSTNELEVKPDIPIPGNLGLLSEAYDRCGEVCAEYAKTFNLGTMLMTPERRRAIWAIYVWCRRTDELVDGPNASYITPAALDRWENRLEDVFNGRPFDMLDGALSDTVSNFPVDIQPFRDMIEGMRMDLRKSRYKNFDELYLYCYYVAGTVGLMSVPIMGIAPESKATTESVYNAALALGIANQLTNILRDVGEDARRGRVYLPQDELAQAGLSDEDIFAGRVTDKWRIFMKKQIHRARKFFDEAEKGVTELSSASRFPVWASLVLYRKILDEIEANDYNNFTKRAYVSKSKKLIALPIAYAKSLVPPTKTASLQR
As to B4, the binding entry in assay [2] was “binds”.

These data come from article PMC7713427.
